{"source": "paper PMC5426791", "assay_in_all_cases": "two-hybrid; Matchmaker GAL4 Two-Hybrid System 3; BD fusions (pGBKT7) in Y187 mated with AD fusions (pGADT7) in AH109; growth at 30°C on SD/-Leu/-Trp/-Ade/-His with X-α-gal; serial dilutions", "key": {"[1]": {"biological_target": "P7-2 residues 79-309 fused to the GAL4 DNA-binding domain (Rice black streaked dwarf virus)"}, "[2]": {"biological_target": "Rice black streaked dwarf virus P7-2 fused to the GAL4 DNA-binding domain (Rice black streaked dwarf virus)"}, "[3]": {"biological_target": "P7-2 residues 44-309 fused to the GAL4 DNA-binding domain (Rice black streaked dwarf virus)"}, "[4]": {"biological_target": "P7-2 residues 1-295 fused to the GAL4 DNA-binding domain (Rice black streaked dwarf virus)"}, "[5]": {"biological_target": "P7-2 residues 1-287 fused to the GAL4 DNA-binding domain (Rice black streaked dwarf virus)"}, "[6]": {"biological_target": "P7-2 residues 25-309 fused to the GAL4 DNA-binding domain (Rice black streaked dwarf virus)"}}, "note": "These are yes or no findings as the source states them, for the method shown. For some of these results: Binding can be weak; no strength is given. Where a sequence is shown, tags or fusion partners need not be part of it.", "data": [{"binder": "O. sativa gibberellin insensitive dwarf2 (GID2) fused to the GAL4 activation domain (protein, UniProt Q7XAK4 1-212) MKFRSDSSGGDEPRAPAAGDGGGGGDEPAKRQRTDPSSSSSQGEASSSSQPPPQQQQEEQPPEDAGEGEQPRVPDLGEDLVFEVLRRAEARTLAAAACVSRGWRQLAEDERLWEAACVREWANLGFSERQLRAVVLSLGGFRRLHAVYIRPLQWRGAGVPRQQGRRQPPVRLGRDQVQLSLSLFSIGFFQNMPCPKKDKGNDSDKNGGGQCG", "values": [{"measurement": "binding", "setting": "[1]", "result": "no binding"}, {"measurement": "binding", "setting": "[2]", "result": "binds"}, {"measurement": "binding", "setting": "[3]", "result": "binds"}, {"measurement": "binding", "setting": "[4]", "result": "binds"}, {"measurement": "binding", "setting": "[5]", "result": "binds"}, {"measurement": "binding", "setting": "[6]", "result": "binds"}]}, {"binder": "Oryza sativa SKP1-like protein OSK4 fused to the GAL4 activation domain (protein, UniProt B8BBT7 1-509) MEGNARGGGHSEALKNYNLGRTLGIGSFGKVKIAEHKLTGHRVAIKILNRRQMRNMEMEEKAKREIKILRLFIHPHIIRLYEVIYTPTDIYVVMEYCKFGELFDYIVEKGRLQEDEARRIFQQIISGVEYCHRNMVVHRDLKPENLLLDSKYNVKLADFGLSNVMHDGHFLKTSCGSPNYAAPEVISGKLYAGPEVDVWSCGVILYALLCGTLPFDDENIPNLFKKIKGGIYTLPSHLSALARDLIPRMLVVDPMKRITIREIREHQWFQIRLPRYLAVPPPDTAQQAKMIDEDTLQDVVNLGYEKDHVCESLRNRLQNEATVAYYLLLDNRFRATSGYLGADYQESLERNLNRFASSESASSNTRHYLPGSSDPHASGLRPHYPVERKWALGLQSRAQPREIMIEVLKALEDLNVCWKKNGQYNMKCRWSVGYPQATDMLDVNHSFVDDSIIMDNGDVNGRLPAVIKFEIQLYKSRDEKYLLDMQRVTGPQLLFLDFCAAFLTKLRVL", "values": [{"measurement": "binding", "setting": "[2]", "result": "binds weakly"}]}, {"binder": "O. sativa gibberellin insensitive dwarf1 (GID1) fused to the GAL4 activation domain (receptor, UniProt Q6L545 1-354) MAGSDEVNRNECKTVVPLHTWVLISNFKLSYNILRRADGTFERDLGEYLDRRVPANARPLEGVSSFDHIIDQSVGLEVRIYRAAAEGDAEEGAAAVTRPILEFLTDAPAAEPFPVIIFFHGGSFVHSSASSTIYDSLCRRFVKLSKGVVVSVNYRRAPEHRYPCAYDDGWTALKWVMSQPFMRSGGDAQARVFLSGDSSGGNIAHHVAVRAADEGVKVCGNILLNAMFGGTERTESERRLDGKYFVTLQDRDWYWKAYLPEDADRDHPACNPFGPNGRRLGGLPFAKSLIIVSGLDLTCDRQLAYADALREDGHHVKVVQCENATVGFYLLPNTVHYHEVMEEISDFLNANLYY", "values": [{"measurement": "binding", "setting": "[2]", "result": "no binding"}]}, {"binder": "Oryza sativa SKP1-like protein OSK3 fused to the GAL4 activation domain (protein, UniProt A2XFF4 1-508) MDGNAKGGGHSEALKNYNLGRTLGIGSFGKVKIAEHKLTGHRVAIKILNRRQMRNMEMEEKAKREIKILRLFIHPHIIRLYEVIYTPTDIYVVMEYCKFGELFDYIVEKGRLQEDEARRIFQQIISGVEYCHRNMVVHRDLKPENLLLDSKYNVKLADFGLSNVMHDGHFLKTSCGSPNYAAPEVISGKLYAGPEVDVWSCGVILYALLCGTLPFDDENIPNLFKKIKGGIYTLPSHLSALARDLIPRMLVVDPMKRITIREIREHQWFQIRLPRYLAVPPPDTAQQAKMIDEDTLQDVVNLGYGKDHVCESLRNRLQNEATVAYYLLLDNRFRATSGYLGADYQESLERNFNRFASSESASSNTRHYLPGSSDPHASGLRPHYPVERKWALGLQSRAQPREIMIEVLKALQDLNVSWKKNGQYNMKCRWSVGTQATDMLDVNNSFVDDSIIMDNGDVNGRLPAVIKFEIQLYKTRDEKYLLDMQRVTGPQLLFLDFCADFLTKLRVL", "values": [{"measurement": "binding", "setting": "[2]", "result": "no binding"}]}, {"binder": "O. sativa Slender Rice 1 (SLR1) fused to the GAL4 activation domain (protein, UniProt Q7G7J6 1-625) MKREYQEAGGSSGGGSSADMGSCKDKVMAGAAGEEEDVDELLAALGYKVRSSDMADVAQKLEQLEMAMGMGGVSAPGAADDGFVSHLATDTVHYNPSDLSSWVESMLSELNAPLPPIPPAPPAARHASTSSTVTGGGGSGFFELPAAADSSSSTYALRPISLPVVATADPSAADSARDTKRMRTGGGSTSSSSSSSSSLGGGASRGSVVEAAPPATQGAAAANAPAVPVVVVDTQEAGIRLVHALLACAEAVQQENFAAAEALVKQIPTLAASQGGAMRKVAAYFGEALARRVYRFRPADSTLLDAAFADLLHAHFYESCPYLKFAHFTANQAILEAFAGCHRVHVVDFGIKQGMQWPALLQALALRPGGPPSFRLTGVGPPQPDETDALQQVGWKLAQFAHTIRVDFQYRGLVAATLADLEPFMLQPEGEADANEEPEVIAVNSVFELHRLLAQPGALEKVLGTVHAVRPRIVTVVEQEANHNSGSFLDRFTESLHYYSTMFDSLEGGSSGQAELSPPAAGGGGGTDQVMSEVYLGRQICNVVACEGAERTERHETLGQWRNRLGRAGFEPVHLGSNAYKQASTLLALFAGGDGYRVEEKEGCLTLGWHTRPLIATSAWRVAAA", "values": [{"measurement": "binding", "setting": "[2]", "result": "no binding"}]}]}
